# Measurements reported in article PMC7819943, “Rice protein-binding microarrays: a tool to detect cis-acting elements near promoter regions in rice”.
# This is one part of the list.
# Target: T1, OsSMF1 (Oryza sativa, UniProt Q6ZLB0 1-436)
# T1 sequence: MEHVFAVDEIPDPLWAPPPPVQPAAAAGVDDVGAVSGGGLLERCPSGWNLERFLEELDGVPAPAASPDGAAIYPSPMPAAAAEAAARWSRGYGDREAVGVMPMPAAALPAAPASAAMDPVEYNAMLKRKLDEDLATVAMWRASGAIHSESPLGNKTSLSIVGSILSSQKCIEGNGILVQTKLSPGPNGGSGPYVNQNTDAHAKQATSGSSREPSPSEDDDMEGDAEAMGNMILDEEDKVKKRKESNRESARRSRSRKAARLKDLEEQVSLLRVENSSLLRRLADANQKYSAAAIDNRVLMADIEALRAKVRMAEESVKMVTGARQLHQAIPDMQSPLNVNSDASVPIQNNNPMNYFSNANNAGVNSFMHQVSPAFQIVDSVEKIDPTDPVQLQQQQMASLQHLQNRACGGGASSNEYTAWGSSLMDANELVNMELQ
# Assay: protein-binding microarray (RPBM); PBS, 2% BSA, 51.3 ng/ul salmon testes DNA, 50 uM zinc acetate, 200 nM TF, 25 C, 1 h; high values mean tight binding
# Conditions: protein: recombinant; tags: N-terminal polyhistidine and DsRed monomer fusion (pET32a); chain copies: 2; label: CyDye5-dUTP incorporated in the synthesized complementary strand; 3' TTTTT single-stranded linker to array surface; dsDNA, one strand shown
# Outline: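 In PBS with 2% BSA, salmon testes DNA and 50 µM zinc acetate, 200 nM protein was incubated on a custom Agilent array at 25 °C for 1 h and then washed off. The array had been made double-stranded by primer extension with Cy5-dUTP and blocked with 2% BSA. The proteins were transcription factors fused N-terminally to polyhistidine and DsRed, expressed in E. coli BL21-CodonPlus and purified on Ni–NTA. The binding signal is per-feature fluorescence intensity (arbitrary units) from an Axon 4000B scanner.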
row,Sequence,binding signal
1,CAATTCCGACGAAATCCGGTCGGATTTCACGAAATTTCGACGGAGTCACCTAGTGCAG,20600 fluorescence intensity (a.u.)
2,ATATTGCAGAAACAAACACATCAGGTGACGTTAGTTCAAACGGAGTCACCTAGTGCAG,4280 fluorescence intensity (a.u.)
3,ATCGTCATGCGCACGTGGCAGTTTCAACGTAGCCACGCCCCGGAGTCACCTAGTGCAG,9640 fluorescence intensity (a.u.)
4,TTAAAGAAATGGTTGGTGCTGCTCCGACTCCCTGTTTCCTCGGAGTCACCTAGTGCAG,16200 fluorescence intensity (a.u.)
5,AGTTTGCTGCCCACTTCAGTAGGTTACAATACAATTATACCGGAGTCACCTAGTGCAG,65300 fluorescence intensity (a.u.)
6,TCTGTAGTACTCCACATCATACGCTGGCTGGACGTCATTACGGAGTCACCTAGTGCAG,6180 fluorescence intensity (a.u.)
7,ATGATCAGATACACACTCTGGCTTGGCTTGTAGCTGCAACCGGAGTCACCTAGTGCAG,50400 fluorescence intensity (a.u.)
8,GAATATCTACAGATAGAAAAGATGCATCATCAGCTTGTCTCGGAGTCACCTAGTGCAG,3540 fluorescence intensity (a.u.)
9,GTGGGTGGTTGGTGGTGGTGGTGGTGGTGGTGATCTTTGGCGGAGTCACCTAGTGCAG,4920 fluorescence intensity (a.u.)
10,AGGTGACACGTCGTCACCTCTATTTCCCCTTTCTCTCTTTCGGAGTCACCTAGTGCAG,18500 fluorescence intensity (a.u.)
11,GTTGCCTCTTAATTTATGAGTGAATGATGTGGATAAATTTCGGAGTCACCTAGTGCAG,4770 fluorescence intensity (a.u.)
12,GTCCCGGCGTGCGGGCGTGGTGCTTCTCCCTTCGCTGTCGCGGAGTCACCTAGTGCAG,3570 fluorescence intensity (a.u.)
13,GCAAAATAGAGTTAGGTCGGGATCACACGAATCTGTAAGACGGAGTCACCTAGTGCAG,29800 fluorescence intensity (a.u.)
14,TTTTGCTGACTAGGATATACCACATCAGCAAAACCCGATACGGAGTCACCTAGTGCAG,12400 fluorescence intensity (a.u.)
15,TTGTACTGTTGTGTCATCGCGGTCCCTAAACTCGCAAATTCGGAGTCACCTAGTGCAG,5730 fluorescence intensity (a.u.)
16,CTCATCAGTTGACCCCTGTCAATTTAGTGTGACTATGTGACGGAGTCACCTAGTGCAG,3700 fluorescence intensity (a.u.)
17,TTCTGTAACTTTTCCAACTCACCTTCCTCGCTTCCCACGCCGGAGTCACCTAGTGCAG,4820 fluorescence intensity (a.u.)
18,ATTCTTCCACACGAGATTGACTACATGGGCATCGAGAAATCGGAGTCACCTAGTGCAG,3890 fluorescence intensity (a.u.)
19,ACTGCATTATAACTACAGTGTAAGCACGGTAACTCCAATGCGGAGTCACCTAGTGCAG,3450 fluorescence intensity (a.u.)
20,GCGATTGATGTTGCTGGCCAGGTGCAGTATCACCTGTAAGCGGAGTCACCTAGTGCAG,4160 fluorescence intensity (a.u.)
21,TTCTTCTCAAGCTCTCTCAGTTGTGTTACAAGGATCGATGCGGAGTCACCTAGTGCAG,4640 fluorescence intensity (a.u.)

# Part of the list above in a different format.
row	Sequence	binding signal
1	CAATTCCGACGAAATCCGGTCGGATTTCACGAAATTTCGACGGAGTCACCTAGTGCAG	20600 fluorescence intensity (a.u.)
2	ATATTGCAGAAACAAACACATCAGGTGACGTTAGTTCAAACGGAGTCACCTAGTGCAG	4280 fluorescence intensity (a.u.)
3	ATCGTCATGCGCACGTGGCAGTTTCAACGTAGCCACGCCCCGGAGTCACCTAGTGCAG	9640 fluorescence intensity (a.u.)
4	TTAAAGAAATGGTTGGTGCTGCTCCGACTCCCTGTTTCCTCGGAGTCACCTAGTGCAG	16200 fluorescence intensity (a.u.)

# (next part)

row,Sequence,binding signal
1,GCCAGGATCCACCATCACTGAGACGCTGACTCCTCATTCGCGGAGTCACCTAGTGCAG,4720 fluorescence intensity (a.u.)
2,AGGTGGTGTGATGTGAAAGTAAATTTGTCATCCCCGGTGCCGGAGTCACCTAGTGCAG,4390 fluorescence intensity (a.u.)
3,CGCGTGCGTGCGTGCGCGTTTCCACCCGATTTAAAGAGACCGGAGTCACCTAGTGCAG,11800 fluorescence intensity (a.u.)
4,GGTGTGTGCCCACTCGTCACGTGTATGCCATGCCTGACACCGGAGTCACCTAGTGCAG,3580 fluorescence intensity (a.u.)
5,AGGCACCGCCCCGCCGCCAGCGCCACCACATCGTCCGACGCGGAGTCACCTAGTGCAG,3370 fluorescence intensity (a.u.)
6,CAAATGTATAAGATATAAATCACACTTAAAGTACTATGAGCGGAGTCACCTAGTGCAG,3150 fluorescence intensity (a.u.)
7,CATCGACCTCGCCAAGGCCGACGTCGACCGTGACCACGTCCGGAGTCACCTAGTGCAG,3740 fluorescence intensity (a.u.)
8,CTCAACATCCCTTATATTTCCCTATTCTTGCAGAATGTGCCGGAGTCACCTAGTGCAG,3330 fluorescence intensity (a.u.)
9,TATGAAACCTGAAAACAACTTAACACGGGTGTCCTTCGTCCGGAGTCACCTAGTGCAG,17500 fluorescence intensity (a.u.)
10,TCATCTCACCATCCATCGATCACACATCAGCTAGCTCGATCGGAGTCACCTAGTGCAG,4810 fluorescence intensity (a.u.)
11,AAAGATCCATGTAGGCGCCACATCAGCCAAAACCGGGGACCGGAGTCACCTAGTGCAG,9110 fluorescence intensity (a.u.)
12,GCCATACACGTACGGCAAATTCCACCCAAAATCGCTTTCACGGAGTCACCTAGTGCAG,21800 fluorescence intensity (a.u.)
13,TTGCTCTAAGCGATCGTTTCGAAAACGACATATTTGTAAACGGAGTCACCTAGTGCAG,3890 fluorescence intensity (a.u.)
14,AGCAATGACAACGTGTTCGGGCGCCGTGACCCCTTTTGGGCGGAGTCACCTAGTGCAG,3690 fluorescence intensity (a.u.)
15,GCGGCGGCGGCGTTCTTGAGCTCGAGGTAGACCGAGACGACGGAGTCACCTAGTGCAG,5350 fluorescence intensity (a.u.)
16,CTTCATGTTCGACCCGTAGTACAGCTATTCTTCAACTCTCCGGAGTCACCTAGTGCAG,3440 fluorescence intensity (a.u.)
17,ATCTAATTGCCACATAAGCACTACGTCAATAACACGTTAGCGGAGTCACCTAGTGCAG,10100 fluorescence intensity (a.u.)
18,TTCTTCGTGTATGATTTATTTAAACAAAATGTGTCATTTCCGGAGTCACCTAGTGCAG,3400 fluorescence intensity (a.u.)
19,AGCCAGCCAAGCCGATCGATCGACCAACAGGAAGGCAAGGCGGAGTCACCTAGTGCAG,27800 fluorescence intensity (a.u.)
20,CAAATTGGACTAGATAAAGAGTAGAAGACACGTCAGCGAACGGAGTCACCTAGTGCAG,14300 fluorescence intensity (a.u.)
21,AATTTTCTCTCTCCAATAGAATCACGCGTCACGTAATCCCCGGAGTCACCTAGTGCAG,5360 fluorescence intensity (a.u.)
